Measurements taken from publication PMC11649915.
Results are given in words; binding and its absence hold for the method and conditions named. Binding seen in cells or lysates may run through a third protein.

Amino acid sequences for entries named in this document (tags omitted). A change or cut given only in a name is not applied to a line headed by its entry.
UniProt Q9HC16, whole entry: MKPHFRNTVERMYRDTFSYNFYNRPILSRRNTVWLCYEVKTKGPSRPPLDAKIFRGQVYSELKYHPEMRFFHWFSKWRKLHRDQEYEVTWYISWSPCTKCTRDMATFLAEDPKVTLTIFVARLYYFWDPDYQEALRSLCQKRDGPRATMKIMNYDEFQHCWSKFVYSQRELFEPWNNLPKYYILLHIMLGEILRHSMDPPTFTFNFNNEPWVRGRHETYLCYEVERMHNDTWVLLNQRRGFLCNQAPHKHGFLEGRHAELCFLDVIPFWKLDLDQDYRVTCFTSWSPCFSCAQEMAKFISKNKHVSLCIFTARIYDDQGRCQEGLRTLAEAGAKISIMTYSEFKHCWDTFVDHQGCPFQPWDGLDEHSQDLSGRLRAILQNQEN

Experiments:
[1] = molecular target: GFP-tagged SARS-CoV-2 membrane protein (SARS-CoV-2) (UniProt P0DTC5); assay: co-IP
[2] = molecular target: GFP-tagged SARS-CoV-2 envelope protein (SARS-CoV-2) (UniProt P0DTC4); assay: co-IP

With “APOBEC3G, transfected, tag not shown (Appendix Fig. S2D and S9D) (from UniProt Q9HC16 1-384) (enzyme)” the binding [1] was “no binding” and the binding [2] was “no binding”.
